Reference: patent US20210108251

What was measured:
Experiment in all cases: enzyme reaction in vitro
MboI = details: 5'-amine and 3'-amine, 2 units, RCA readout, purified recombinant protein, protein details: New England Biolabs, folded or branched DNA
SacII = details: 5'-amine and 3'-amine, purified recombinant protein, protein details: New England Biolabs, folded or branched DNA
XhoI = details: 5'-amine and 3'-amine, purified recombinant protein, protein details: New England Biolabs, folded or branched DNA
[1] = tested on: XhoI activity (M. smegmatis extract) (Mycobacterium smegmatis); details: 5'-amine and 3'-amine, protein in an extract, folded or branched DNA
BciVI = details: 5'-amine and 3'-amine, 2 units, RCA readout, purified recombinant protein, protein details: New England Biolabs, folded or branched DNA
[2] = off-target enzyme, 2 units, pair SEQ 1+2
[3] = off-target enzyme, 2 units, pair SEQ 7+8
[4] = off-target enzyme, 2 units, pair SEQ 5+6
[5] = off-target enzyme, 2 units, pair SEQ 3+4

In the case of “ATTTGACGATCGTCGTATAGGAACTTCGAACGACTCGCCTCAATGCACATGTTTGGCTCCCGAGTCGTTCGAAGTTCCTATACGACGATCGTCAAAT [REN2-ID33-MboI]”, the “activity on this sequence” value (MboI; pair with SEQ 16) was “active”.
“ATTTGACGAATTCGTCGTATAGGAACTTCGAACGACTCGCCTCAATGCACATGTTTGGCTCCCGAGTCGTTCGAAGTTCCTATACGACGAATTCGTCAAAT [REN2-ID33-EcoRI]” was tested, and the “activity on this sequence” value (SacII; [2]) was “not active” and the “activity on this sequence” value (XhoI; [2]) was “not active”.
With “ATTTGACCTGCAGGTCGTATAGGAACTTCGAACGACTCGCCTCAATGCACATGTTTGGCTCCCGAGTCGTTCGAAGTTCCTATACGACCTGCAGGTCAAAT [REN2-ID33-PstI]” the “activity on this sequence” value (SacII; [3]) was “not active” and the “activity on this sequence” value (XhoI; [3]) was “not active”.
With “ATTTCCACCGCGGTGGGTATAGGAACTTCGAACGACTCGACTGTGAAGATCGCTTATCGAGTCGTTCGAAGTTCCTATACCCACCGCGGTGGAAAT [REN2-PB-SacII]” the “activity on this sequence” value (SacII; pair with SEQ 5, RCA readout) was “active” and the “activity on this sequence” value (XhoI; [4]) was “not active”.
“ATTTGACCTCGAGGTCGTATAGGAACTTCGAACGACTCGCCTCAATGCACATGTTTGGCTCCCGAGTCGTTCGAAGTTCCTATACGACCTCGAGGTCAAAT [REN2-ID33-XhoI]” was tested, and the “activity on this sequence” value (SacII; [5]) was “not active”, the “activity on this sequence” value ([1]; pair with SEQ 18 or SEQ 4, extract) was “active” and the “activity on this sequence” value (XhoI; pair with SEQ 4, RCA readout) was “active”.
In the case of “ATTTCCACTGCAGTGGGTATAGGAACTTCGAACGACTCGACTGTGAAGATCGCTTATCGAGTCGTTCGAAGTTCCTATACCCACTGCAGTGGAAAT [REN2-PB-PstI]”, the “activity on this sequence” value (SacII; [3]) was “not active” and the “activity on this sequence” value (XhoI; [3]) was “not active”.
“ATTCACTCTCGAGAGCGCTTAGGAGTGCATATACGATGCACTGTGAAGATCGCTTATGCATCGTATATGCACTCCTAAGCGCTCTCGAGAGTGAAT [REN2B-PB-XhoI]” was tested, and the “activity on this sequence” value ([1]; pair with SEQ 3, extract, RY13 extract gives no signal) was “active” and the “activity on this sequence” value (XhoI; pair with SEQ 3, LNA primer RCA readout) was “active”.
“ATTTCCACTCGAGTGGGTATAGGAACTTCGAACGACTCGACTGTGAAGATCGCTTATCGAGTCGTTCGAAGTTCCTATACCCACTCGAGTGGAAAT [REN2-PB-XhoI]” was tested, and the “activity on this sequence” value (SacII; [5]) was “not active”, the “activity on this sequence” value ([1]; pair with SEQ 3, identical stems, off-target signal with RY13 extract) was “active” and the “activity on this sequence” value (XhoI; pair with SEQ 3, RCA readout) was “active”.
In the case of “ATTTCCAGATCTGGGTATAGGAACTTCGAACGACTCGACTGTGAAGATCGCTTATCGAGTCGTTCGAAGTTCCTATACCCAGATCTGGAAAT [REN2-PB-MboI]”, the “activity on this sequence” value (MboI; pair with SEQ 15) was “active”.
With “ATTTGACCCGCGGGTCGTATAGGAACTTCGAACGACTCGCCTCAATGCACATGTTTGGCTCCCGAGTCGTTCGAAGTTCCTATACGACCCGCGGGTCAAAT [REN2-ID33-SacII]” the “activity on this sequence” value (SacII; pair with SEQ 6, RCA readout) was “active” and the “activity on this sequence” value (XhoI; [4]) was “not active”.
In the case of “ATTTGACGTATCCAAATTTGTCGACTTCGAACGACTCGCCTCAATGCACATGTTTGGCTCCCGAGTCGTTCGAAGTCGACAAATTTGGATACGTCAAAT [REN2-ID33-BciVI]”, the “activity on this sequence” value (BciVI; pair with SEQ 14) was “active”.
For “ATTTCCAGAATTCTGGGTATAGGAACTTCGAACGACTCGACTGTGAAGATCGCTTATCGAGTCGTTCGAAGTTCCTATACCCAGAATTCTGGAAAT [REN2-PB-EcoRI]”, the “activity on this sequence” value (SacII; [2]) was “not active” and the “activity on this sequence” value (XhoI; [2]) was “not active”.
For “ATTTCCAGTATCCTTTAAATGGGACTTCGAACGACTCGACTGTGAAGATCGCTTATCGAGTCGTTCGAAGTCCCATTTAAAGGATACTGGAAAT [REN2-PB-BciVI]”, the “activity on this sequence” value (BciVI; pair with SEQ 13) was “active”.

Construct, isoform or probe ends are uncertain for at least one entry. For part of these data: No signal at the amounts used counts as a negative.
